According to the supplement of paper PMC10849652:
The list shows a part of the results.

Amino acid sequences for entries named in this document (tags omitted). A change or cut given only in a name is not applied to a line headed by its entry.
UniProt Q9NQG6: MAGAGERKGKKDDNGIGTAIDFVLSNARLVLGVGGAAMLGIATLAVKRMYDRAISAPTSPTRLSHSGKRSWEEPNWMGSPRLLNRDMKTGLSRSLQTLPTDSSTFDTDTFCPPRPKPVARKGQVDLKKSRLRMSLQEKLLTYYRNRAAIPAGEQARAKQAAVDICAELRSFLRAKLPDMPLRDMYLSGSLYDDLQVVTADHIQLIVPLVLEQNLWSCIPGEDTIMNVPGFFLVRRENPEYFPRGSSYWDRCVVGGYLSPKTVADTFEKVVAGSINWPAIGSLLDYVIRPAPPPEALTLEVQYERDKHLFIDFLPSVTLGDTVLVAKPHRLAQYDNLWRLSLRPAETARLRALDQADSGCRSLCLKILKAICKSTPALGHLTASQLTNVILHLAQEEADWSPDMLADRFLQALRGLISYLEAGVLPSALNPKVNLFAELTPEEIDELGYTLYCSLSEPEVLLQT
UniProt Q7L1V2: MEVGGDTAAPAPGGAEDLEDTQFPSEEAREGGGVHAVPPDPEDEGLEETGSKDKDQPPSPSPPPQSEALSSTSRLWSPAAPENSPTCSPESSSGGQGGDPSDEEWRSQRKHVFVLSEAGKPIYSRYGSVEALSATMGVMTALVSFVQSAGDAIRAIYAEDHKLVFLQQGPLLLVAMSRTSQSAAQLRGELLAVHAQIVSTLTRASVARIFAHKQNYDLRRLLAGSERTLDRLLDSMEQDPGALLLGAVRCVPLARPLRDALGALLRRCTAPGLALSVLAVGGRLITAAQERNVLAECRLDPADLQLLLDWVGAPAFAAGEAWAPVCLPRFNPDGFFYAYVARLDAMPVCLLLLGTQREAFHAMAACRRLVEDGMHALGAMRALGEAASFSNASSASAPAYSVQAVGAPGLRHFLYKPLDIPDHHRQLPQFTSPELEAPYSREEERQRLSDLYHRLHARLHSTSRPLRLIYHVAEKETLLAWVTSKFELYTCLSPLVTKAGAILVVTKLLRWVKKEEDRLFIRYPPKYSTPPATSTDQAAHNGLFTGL
UniProt Q00013: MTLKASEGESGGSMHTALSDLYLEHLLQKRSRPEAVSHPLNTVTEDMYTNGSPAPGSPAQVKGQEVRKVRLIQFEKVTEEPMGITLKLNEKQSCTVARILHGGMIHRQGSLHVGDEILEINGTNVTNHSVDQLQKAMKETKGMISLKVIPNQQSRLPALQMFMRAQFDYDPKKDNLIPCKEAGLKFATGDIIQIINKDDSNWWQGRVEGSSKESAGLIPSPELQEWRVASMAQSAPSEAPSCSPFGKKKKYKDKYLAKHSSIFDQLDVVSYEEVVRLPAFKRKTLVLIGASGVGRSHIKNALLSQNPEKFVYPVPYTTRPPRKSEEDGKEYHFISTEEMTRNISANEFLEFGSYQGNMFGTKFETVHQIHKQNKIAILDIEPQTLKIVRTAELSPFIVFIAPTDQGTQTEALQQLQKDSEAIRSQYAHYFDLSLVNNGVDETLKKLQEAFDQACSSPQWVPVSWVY
UniProt P25325: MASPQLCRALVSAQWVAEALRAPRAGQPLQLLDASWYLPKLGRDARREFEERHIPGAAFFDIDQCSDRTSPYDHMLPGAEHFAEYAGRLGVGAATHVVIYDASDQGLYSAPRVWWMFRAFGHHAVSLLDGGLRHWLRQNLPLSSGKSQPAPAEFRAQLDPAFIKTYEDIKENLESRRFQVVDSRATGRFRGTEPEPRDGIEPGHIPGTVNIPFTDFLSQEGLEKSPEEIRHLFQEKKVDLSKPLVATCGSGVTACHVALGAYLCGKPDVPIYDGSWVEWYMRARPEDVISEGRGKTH
UniProt Q8IYU8: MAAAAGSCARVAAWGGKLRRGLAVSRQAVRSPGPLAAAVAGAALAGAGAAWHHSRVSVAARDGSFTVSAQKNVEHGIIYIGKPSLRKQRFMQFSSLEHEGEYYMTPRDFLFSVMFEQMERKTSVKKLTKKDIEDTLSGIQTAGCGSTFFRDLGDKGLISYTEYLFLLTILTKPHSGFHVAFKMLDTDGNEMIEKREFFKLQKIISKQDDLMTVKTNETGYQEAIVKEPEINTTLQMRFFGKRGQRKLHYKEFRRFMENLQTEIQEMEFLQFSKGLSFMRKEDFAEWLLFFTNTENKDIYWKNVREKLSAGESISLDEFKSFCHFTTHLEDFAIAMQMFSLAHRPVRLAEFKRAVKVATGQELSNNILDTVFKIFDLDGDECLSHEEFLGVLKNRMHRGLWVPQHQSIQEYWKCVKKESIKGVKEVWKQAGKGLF
UniProt Q9HCE1: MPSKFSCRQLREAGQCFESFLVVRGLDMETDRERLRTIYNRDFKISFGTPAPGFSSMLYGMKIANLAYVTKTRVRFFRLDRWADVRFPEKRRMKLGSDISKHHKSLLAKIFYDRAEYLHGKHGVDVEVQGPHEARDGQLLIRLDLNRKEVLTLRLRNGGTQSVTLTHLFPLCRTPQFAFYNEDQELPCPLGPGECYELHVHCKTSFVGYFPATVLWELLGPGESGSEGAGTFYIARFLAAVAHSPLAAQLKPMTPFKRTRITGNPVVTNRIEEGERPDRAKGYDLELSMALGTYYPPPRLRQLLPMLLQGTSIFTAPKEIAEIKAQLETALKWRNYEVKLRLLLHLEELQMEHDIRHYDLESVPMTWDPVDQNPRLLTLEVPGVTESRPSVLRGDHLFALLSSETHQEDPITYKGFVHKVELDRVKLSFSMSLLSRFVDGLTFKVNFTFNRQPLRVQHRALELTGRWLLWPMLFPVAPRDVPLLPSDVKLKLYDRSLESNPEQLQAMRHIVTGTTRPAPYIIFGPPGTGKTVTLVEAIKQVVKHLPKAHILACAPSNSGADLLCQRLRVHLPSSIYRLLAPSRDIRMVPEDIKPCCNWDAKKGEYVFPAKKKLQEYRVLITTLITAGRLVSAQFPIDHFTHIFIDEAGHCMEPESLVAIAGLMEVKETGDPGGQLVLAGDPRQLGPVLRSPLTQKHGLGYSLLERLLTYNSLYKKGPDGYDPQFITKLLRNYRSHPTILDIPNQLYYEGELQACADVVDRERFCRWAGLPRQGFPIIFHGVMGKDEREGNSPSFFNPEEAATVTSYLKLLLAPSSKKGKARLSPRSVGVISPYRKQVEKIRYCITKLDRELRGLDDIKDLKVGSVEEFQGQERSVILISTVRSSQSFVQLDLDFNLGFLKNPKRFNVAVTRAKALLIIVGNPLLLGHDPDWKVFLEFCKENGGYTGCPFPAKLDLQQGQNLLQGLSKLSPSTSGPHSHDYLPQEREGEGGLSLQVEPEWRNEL
UniProt Q8N4C8: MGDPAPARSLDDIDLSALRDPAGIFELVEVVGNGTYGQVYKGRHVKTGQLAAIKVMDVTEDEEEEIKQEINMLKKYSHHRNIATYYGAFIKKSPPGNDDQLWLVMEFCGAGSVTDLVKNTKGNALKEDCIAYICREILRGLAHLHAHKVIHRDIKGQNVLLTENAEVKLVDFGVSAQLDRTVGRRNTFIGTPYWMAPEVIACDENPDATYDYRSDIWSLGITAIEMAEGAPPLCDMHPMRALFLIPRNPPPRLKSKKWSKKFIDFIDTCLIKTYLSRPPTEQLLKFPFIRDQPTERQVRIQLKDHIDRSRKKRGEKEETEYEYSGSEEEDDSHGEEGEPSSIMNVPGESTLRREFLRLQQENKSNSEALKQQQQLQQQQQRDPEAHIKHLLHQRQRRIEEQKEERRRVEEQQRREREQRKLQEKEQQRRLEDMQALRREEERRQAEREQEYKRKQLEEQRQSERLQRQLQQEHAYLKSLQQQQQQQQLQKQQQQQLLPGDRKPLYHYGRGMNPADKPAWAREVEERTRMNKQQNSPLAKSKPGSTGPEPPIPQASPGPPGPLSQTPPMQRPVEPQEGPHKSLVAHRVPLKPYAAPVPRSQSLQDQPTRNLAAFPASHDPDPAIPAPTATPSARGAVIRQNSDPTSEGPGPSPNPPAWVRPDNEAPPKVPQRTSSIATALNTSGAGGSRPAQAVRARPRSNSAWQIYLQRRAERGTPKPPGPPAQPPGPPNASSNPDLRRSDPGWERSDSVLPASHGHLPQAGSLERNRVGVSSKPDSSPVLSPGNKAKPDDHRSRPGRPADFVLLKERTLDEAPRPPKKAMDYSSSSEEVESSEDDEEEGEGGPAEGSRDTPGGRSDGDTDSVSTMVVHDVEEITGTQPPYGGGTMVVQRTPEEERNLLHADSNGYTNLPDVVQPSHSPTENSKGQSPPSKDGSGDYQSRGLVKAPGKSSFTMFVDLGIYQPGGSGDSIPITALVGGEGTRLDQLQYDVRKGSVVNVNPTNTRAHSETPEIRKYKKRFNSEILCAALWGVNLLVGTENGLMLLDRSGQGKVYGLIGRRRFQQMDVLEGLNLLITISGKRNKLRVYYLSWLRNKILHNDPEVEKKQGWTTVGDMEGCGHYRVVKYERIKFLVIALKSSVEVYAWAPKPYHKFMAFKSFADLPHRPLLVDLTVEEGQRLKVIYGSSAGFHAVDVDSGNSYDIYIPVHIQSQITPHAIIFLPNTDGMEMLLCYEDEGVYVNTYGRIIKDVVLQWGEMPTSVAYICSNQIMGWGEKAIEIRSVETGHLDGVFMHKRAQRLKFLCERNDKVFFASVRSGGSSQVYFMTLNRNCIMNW
UniProt O00566: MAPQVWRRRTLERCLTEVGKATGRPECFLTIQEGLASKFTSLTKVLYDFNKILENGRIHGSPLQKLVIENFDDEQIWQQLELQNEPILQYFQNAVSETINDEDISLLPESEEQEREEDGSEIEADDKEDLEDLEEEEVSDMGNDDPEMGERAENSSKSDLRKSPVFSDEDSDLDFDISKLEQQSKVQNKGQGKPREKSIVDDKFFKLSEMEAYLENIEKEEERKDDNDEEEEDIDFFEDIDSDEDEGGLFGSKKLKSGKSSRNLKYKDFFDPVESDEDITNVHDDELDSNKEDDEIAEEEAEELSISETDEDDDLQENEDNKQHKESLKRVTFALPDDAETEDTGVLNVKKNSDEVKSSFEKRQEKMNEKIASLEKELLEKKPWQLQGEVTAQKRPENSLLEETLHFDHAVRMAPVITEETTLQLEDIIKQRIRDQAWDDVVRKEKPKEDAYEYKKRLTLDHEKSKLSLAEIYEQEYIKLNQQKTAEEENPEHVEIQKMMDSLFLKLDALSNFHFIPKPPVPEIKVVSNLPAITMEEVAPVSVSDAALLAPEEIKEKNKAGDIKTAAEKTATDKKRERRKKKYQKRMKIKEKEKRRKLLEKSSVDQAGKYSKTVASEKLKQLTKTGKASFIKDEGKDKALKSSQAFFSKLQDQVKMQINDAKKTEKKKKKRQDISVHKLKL
UniProt O96033: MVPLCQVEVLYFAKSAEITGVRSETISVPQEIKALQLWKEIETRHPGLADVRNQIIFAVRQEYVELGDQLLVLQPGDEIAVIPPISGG
UniProt P51948: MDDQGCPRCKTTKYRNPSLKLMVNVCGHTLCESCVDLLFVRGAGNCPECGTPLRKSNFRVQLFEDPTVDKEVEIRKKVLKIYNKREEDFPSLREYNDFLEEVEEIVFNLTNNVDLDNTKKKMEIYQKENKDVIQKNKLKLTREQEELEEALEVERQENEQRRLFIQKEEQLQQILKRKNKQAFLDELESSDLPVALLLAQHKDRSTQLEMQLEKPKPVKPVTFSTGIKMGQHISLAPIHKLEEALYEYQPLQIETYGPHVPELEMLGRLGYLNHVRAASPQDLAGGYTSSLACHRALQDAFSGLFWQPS
UniProt Q14149: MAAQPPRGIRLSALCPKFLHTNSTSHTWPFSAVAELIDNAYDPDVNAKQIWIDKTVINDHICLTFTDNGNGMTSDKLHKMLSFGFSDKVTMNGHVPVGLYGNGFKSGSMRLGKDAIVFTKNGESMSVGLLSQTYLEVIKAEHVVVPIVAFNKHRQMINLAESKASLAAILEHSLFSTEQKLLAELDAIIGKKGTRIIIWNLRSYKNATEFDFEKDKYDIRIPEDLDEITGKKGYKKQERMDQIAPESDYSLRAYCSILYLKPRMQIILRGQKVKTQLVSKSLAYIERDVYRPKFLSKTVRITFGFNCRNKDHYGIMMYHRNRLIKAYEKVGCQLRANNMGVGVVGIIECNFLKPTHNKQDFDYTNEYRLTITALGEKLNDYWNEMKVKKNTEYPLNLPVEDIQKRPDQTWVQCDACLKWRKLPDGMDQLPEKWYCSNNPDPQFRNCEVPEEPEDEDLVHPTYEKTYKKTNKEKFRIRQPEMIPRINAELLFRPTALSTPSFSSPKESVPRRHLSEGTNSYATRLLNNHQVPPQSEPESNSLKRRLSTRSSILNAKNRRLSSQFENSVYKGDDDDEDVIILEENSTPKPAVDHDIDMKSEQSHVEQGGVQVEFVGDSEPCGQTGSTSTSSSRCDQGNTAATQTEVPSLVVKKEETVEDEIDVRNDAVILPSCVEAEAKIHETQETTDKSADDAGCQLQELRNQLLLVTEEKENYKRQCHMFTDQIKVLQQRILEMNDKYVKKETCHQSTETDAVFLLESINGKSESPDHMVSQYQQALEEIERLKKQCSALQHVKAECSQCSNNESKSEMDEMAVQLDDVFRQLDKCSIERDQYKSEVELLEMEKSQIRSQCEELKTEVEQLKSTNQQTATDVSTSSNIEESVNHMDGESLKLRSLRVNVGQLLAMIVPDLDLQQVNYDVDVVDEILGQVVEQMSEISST

What follows are targets tested with CNC(=O)c1ccc(Nc2ncc(C(F)(F)F)c(NCc3nccnc3N(C)S(C)(=O)=O)n2)cc1 [defactinib] (assay: log2 fold change, soluble protein after heating vs DMSO (PISA); higher = thermal stabilisation; K562 cells, 10 uM, 30 min; active = over 0.2 and 3.5 SD of the protein, either way, in both replicates (recomputed)).
In short: (§1)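 For each measurement, 10 μM compound was applied for 30 min to K562 cells at 2×10^6 cells/mL. Aliquots were heated for 3 min across 48°C-58°C, pooled, and extracted in PBS with 0.5% NP-40 at 4°C; the supernatant after 21,000xg for 90 min was soluble protein. This was quantified by TMTpro 16plex LC-MS/MS with channel sums equalised, and thermal stability was reported relative to control samples from duplicates, on a log2 fold-change scale.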

Row | Target | log2 fold change
1 | MIEF1 (UniProt Q9NQG6) | inactive: 0.014
2 | MON1B (UniProt Q7L1V2) | inactive: 0.016
3 | MPP1 (UniProt Q00013) | inactive: -0.082
4 | MPST isoform 2 (UniProt P25325) | inactive: -0.099
5 | MICU2 (UniProt Q8IYU8) | inactive: -0.014
6 | MOV10 (UniProt Q9HCE1) | inactive: 0.167
7 | MPRIP isoform 2 (UniProt Q6WCQ1) | inactive: 0.037
8 | MIEF1 (UniProt L0R8F8) | inactive: -0.003
9 | MRPL50 (UniProt Q8N5N7) | inactive: 0.04
10 | MINK1 (UniProt Q8N4C8) | inactive: -0.069
11 | MRPL28 (UniProt Q13084) | inactive: 0.12
12 | MRPL42 (UniProt Q9Y6G3) | inactive: 0.106
13 | MPHOSPH10 (UniProt O00566) | inactive: 0.11

The targets below were run with CNCc1ccc(-c2[nH]c3cc(F)cc4c3c2CCNC4=O)cc1 [rucaparib] in the same assay as above.
In short: as §1

Row | Target | log2 fold change
14 | MRPL47 (UniProt Q9HD33) | inactive: -0.122
15 | MRPL4 (UniProt Q9BYD3) | inactive: 0.119
16 | MIF (UniProt P14174) | inactive: 0.026
17 | MMS19 isoform 8 (UniProt Q96T76) | inactive: 0.052
18 | MOCS2 (UniProt O96033) | inactive: 0.009
19 | MNAT1 (UniProt P51948) | inactive: -0.046
20 | MRPL53 (UniProt Q96EL3) | inactive: 0.11
21 | MIS12 (UniProt Q9H081) | inactive: 0.021
22 | MRPL37 (UniProt Q9BZE1) | inactive: 0.111
23 | MKRN2 (UniProt Q9H000) | inactive: 0.258
24 | MITD1 (UniProt Q8WV92) | inactive: 0.097
25 | MIEN1 (UniProt Q9BRT3) | inactive: -0.032
26 | MKRN3 (UniProt Q13064) | inactive: -0.09
27 | MICU1 isoform 3 (UniProt Q9BPX6) | inactive: 0.134
28 | MLST8 (UniProt Q9BVC4) | inactive: 0.099
29 | MND1 (UniProt Q9BWT6) | inactive: 0.05
30 | MRFAP1 (UniProt Q9Y605) | inactive: -0.099

Row | Target | log2 fold change
31 | MRPL34 (UniProt Q9BQ48) | inactive: 0.101
32 | MICOS13 (UniProt Q5XKP0) | inactive: -0.041
33 | MPC1 (UniProt Q9Y5U8) | inactive: 0.121
34 | MRPL46 (UniProt Q9H2W6) | inactive: 0.058
35 | MORC3 (UniProt Q14149) | inactive: 0.044
36 | MIEF1 (UniProt Q9NQG6) | inactive: -0.009
37 | MON1B (UniProt Q7L1V2) | inactive: -0.015
38 | MPP1 (UniProt Q00013) | inactive: 0.104
39 | MPST isoform 2 (UniProt P25325) | inactive: 0.007
40 | MICU2 (UniProt Q8IYU8) | inactive: 0.102
41 | MOV10 (UniProt Q9HCE1) | inactive: 0.271
42 | MIEF1 (UniProt L0R8F8) | inactive: 0.024
43 | MRPL50 (UniProt Q8N5N7) | inactive: 0.063
44 | MINK1 (UniProt Q8N4C8) | inactive: -0.033
45 | MRPL28 (UniProt Q13084) | inactive: 0.198
46 | MRPL42 (UniProt Q9Y6G3) | inactive: -0.006
47 | MPHOSPH10 (UniProt O00566) | inactive: 0.229

The targets below were run with CNc1nc(-c2ccc3c(N)n[nH]c3c2)cc(N2C[C@@H](C(=O)NC3CCCCC3)CC[C@H]2C)n1 in the same assay as above.
In short: as §1

Row | Target | log2 fold change
48 | MRPL47 (UniProt Q9HD33) | inactive: 0.17
49 | MLXIP (UniProt Q9HAP2) | inactive: 0.11
50 | MRPL4 (UniProt Q9BYD3) | inactive: 0.148
51 | MIF (UniProt P14174) | inactive: -0.105
52 | MMGT1 (UniProt Q8N4V1) | inactive: -0.001
53 | MMS19 isoform 8 (UniProt Q96T76) | inactive: -0.003
54 | MOCS2 (UniProt O96033) | inactive: -0.061
55 | MNAT1 (UniProt P51948) | inactive: -0.004
56 | MRPL53 (UniProt Q96EL3) | inactive: 0.005
57 | MIS12 (UniProt Q9H081) | inactive: -0.006
58 | MRPL37 (UniProt Q9BZE1) | inactive: 0.186
59 | MKRN2 (UniProt Q9H000) | inactive: 0.007
60 | MITD1 (UniProt Q8WV92) | inactive: -0.112
61 | MIEN1 (UniProt Q9BRT3) | inactive: -0.019
62 | MKRN3 (UniProt Q13064) | inactive: -0.253
63 | MICU1 isoform 3 (UniProt Q9BPX6) | inactive: -0.012
64 | MOB3A (UniProt Q96BX8) | inactive: -0.014
65 | MLST8 (UniProt Q9BVC4) | inactive: 0.014
66 | MND1 (UniProt Q9BWT6) | inactive: -0.059
67 | MRFAP1 (UniProt Q9Y605) | inactive: -0.002

Row | Target | log2 fold change
68 | MRPL34 (UniProt Q9BQ48) | inactive: 0.169
69 | MICOS13 (UniProt Q5XKP0) | inactive: -0.017
70 | MPC1 (UniProt Q9Y5U8) | inactive: 0.037
71 | MRPL46 (UniProt Q9H2W6) | inactive: 0.115
72 | MORC3 (UniProt Q14149) | inactive: -0.02
73 | MIEF1 (UniProt Q9NQG6) | inactive: -0.088
74 | MON1B (UniProt Q7L1V2) | inactive: -0.036
75 | MPP1 (UniProt Q00013) | inactive: 0.059
76 | MPST isoform 2 (UniProt P25325) | inactive: 0.001
77 | MICU2 (UniProt Q8IYU8) | inactive: -0.021
78 | MOV10 (UniProt Q9HCE1) | inactive: 0
79 | MPRIP isoform 2 (UniProt Q6WCQ1) | inactive: 0.014
80 | MIEF1 (UniProt L0R8F8) | inactive: -0.074
81 | MRPL50 (UniProt Q8N5N7) | inactive: -0.065
82 | MINK1 (UniProt Q8N4C8) | inactive: -0.029
83 | MRPL28 (UniProt Q13084) | inactive: 0.15
84 | MMAA (UniProt Q8IVH4) | inactive: -0.019
85 | MRPL42 (UniProt Q9Y6G3) | inactive: -0.016
86 | MPHOSPH10 (UniProt O00566) | inactive: -0.081
